System: plasma membrane of SH-SY5Y neuroblastoma cells
Assay: Fluorescence Correlation Spectroscopy (FCS) diffusion time at the plasma membrane
Format: cell-based, human
Conditions: for diffusion time τD on average: untreated cells

## CCCCCCCCCCCCCCCCCCN1/C(=C/C=C/C2=[N+](CCCCCCCCCCCCCCCCCC)c3ccccc3C2(C)C)C(C)(C)c2ccccc21.[O-][Cl+3]([O-])([O-])[O-] [DiI-C18]
4 mM MbCD for 30 minutes
  diffusion time τD under cholesterol depletion: 10.7 ± 0.58 ms
  diffusion time τD on average: 10 ms

## Cysteine-[AEEAc]2-DAEFRHDSGYEVHHQELVFFAEDVG (N-terminal Cys-[AEEAc]2 spacer, Oregon Green label) [SBD-OG, SBD with Cys-[AEEAc]2 spacer, thiol-labelled with Oregon Green]
  diffusion time τD on average: 35 ms
